Measured values as given in paper doi:10.1101/2023.01.28.526013.
Results are given in words; binding and its absence hold for the method and conditions named. In cells and extracts the contact can be indirect. Some results given as binding are weak or reduced against the parent protein; the word gives no strength. For part of these data: Where a sequence is shown, tags or fusion partners need not be part of it.

Amino acid sequences for entries named in this document (tags omitted). Residues count along the entry.
UniProt P25311, residues 21-298: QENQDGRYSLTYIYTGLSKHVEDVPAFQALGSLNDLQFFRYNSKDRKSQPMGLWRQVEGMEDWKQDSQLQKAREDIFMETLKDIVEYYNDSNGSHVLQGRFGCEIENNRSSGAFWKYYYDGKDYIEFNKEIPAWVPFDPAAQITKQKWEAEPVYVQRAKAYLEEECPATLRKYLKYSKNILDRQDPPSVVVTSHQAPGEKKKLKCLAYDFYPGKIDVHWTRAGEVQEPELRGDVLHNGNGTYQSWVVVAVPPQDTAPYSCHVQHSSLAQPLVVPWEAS

T1: MIIP in HCT116 cells transfected with AZGP1 plasmids only (human (endogenous in HCT116)) (UniProt Q5JXC2)
T1 sequence: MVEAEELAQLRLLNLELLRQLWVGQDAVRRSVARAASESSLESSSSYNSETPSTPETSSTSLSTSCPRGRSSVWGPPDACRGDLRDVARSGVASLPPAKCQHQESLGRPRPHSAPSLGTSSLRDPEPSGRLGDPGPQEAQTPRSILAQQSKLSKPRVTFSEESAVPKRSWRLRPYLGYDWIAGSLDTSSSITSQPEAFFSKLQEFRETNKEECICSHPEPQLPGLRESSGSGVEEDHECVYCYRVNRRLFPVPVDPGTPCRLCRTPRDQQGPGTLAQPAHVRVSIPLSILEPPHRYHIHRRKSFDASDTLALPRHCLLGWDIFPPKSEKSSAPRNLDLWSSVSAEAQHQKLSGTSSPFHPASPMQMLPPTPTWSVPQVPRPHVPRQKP

T2: Migration and invasion inhibitory protein, FLAG-tagged (pCMV-MIIP-FLAG) (UniProt Q5JXC2)
T2 sequence: T1 sequence

T3: MIIP in HepG2 and T47-D cells (UniProt Q5JXC2)
T3 sequence: T1 sequence

B1: Migration and invasion inhibitory protein, FLAG-tagged (pCMV-MIIP-FLAG) (protein, UniProt Q5JXC2 1-388)
chain: T1 sequence
B2: STT3B, catalytic subunit of the N-oligosaccharyl-transferase (OST) complex (enzyme, UniProt Q8TCJ2 1-826)
chain: MAEPSAPESKHKSSLNSSPWSGLMALGNSRHGHHGPGAQCAHKAAGGAAPPKPAPAGLSGGLSQPAGWQSLLSFTILFLAWLAGFSSRLFAVIRFESIIHEFDPWFNYRSTHHLASHGFYEFLNWFDERAWYPLGRIVGGTVYPGLMITAGLIHWILNTLNITVHIRDVCVFLAPTFSGLTSISTFLLTRELWNQGAGLLAACFIAIVPGYISRSVAGSFDNEGIAIFALQFTYYLWVKSVKTGSVFWTMCCCLSYFYMVSAWGGYVFIINLIPLHVFVLLLMQRYSKRVYIAYSTFYIVGLILSMQIPFVGFQPIRTSEHMAAAGVFALLQAYAFLQYLRDRLTKQEFQTLFFLGVSLAAGAVFLSVIYLTYTGYIAPWSGRFYSLWDTGYAKIHIPIIASVSEHQPTTWVSFFFDLHILVCTFPAGLWFCIKNINDERVFVALYAISAVYFAGVMVRLMLTLTPVVCMLSAIAFSNVFEHYLGDDMKRENPPVEDSSDEDDKRNQGNLYDKAGKVRKHATEQEKTEEGLGPNIKSIVTMLMLMLLMMFAVHCTWVTSNAYSSPSVVLASYNHDGTRNILDDFREAYFWLRQNTDEHARVMSWWDYGYQIAGMANRTTLVDNNTWNNSHIALVGKAMSSNETAAYKIMRTLDVDYVLVIFGGVIGYSGDDINKFLWMVRIAEGEHPKDIRESDYFTPQGEFRVDKAGSPTLLNCLMYKMSYYRFGEMQLDFRTPPGFDRTRNAEIGNKDIKFKHLEEAFTSEHWLVRIYKVKAPDNRETLDHKPRVTNIFPKQKYLSKKTTKRKRGYIKNKLVFKKGKKISKKTV
B3: STT3A, catalytic subunit of the N-oligosaccharyl-transferase (OST) complex (enzyme, UniProt P46977 1-705)
chain: MTKFGFLRLSYEKQDTLLKLLILSMAAVLSFSTRLFAVLRFESVIHEFDPYFNYRTTRFLAEEGFYKFHNWFDDRAWYPLGRIIGGTIYPGLMITSAAIYHVLHFFHITIDIRNVCVFLAPLFSSFTTIVTYHLTKELKDAGAGLLAAAMIAVVPGYISRSVAGSYDNEGIAIFCMLLTYYMWIKAVKTGSICWAAKCALAYFYMVSSWGGYVFLINLIPLHVLVLMLTGRFSHRIYVAYCTVYCLGTILSMQISFVGFQPVLSSEHMAAFGVFGLCQIHAFVDYLRSKLNPQQFEVLFRSVISLVGFVLLTVGALLMLTGKISPWTGRFYSLLDPSYAKNNIPIIASVSEHQPTTWSSYYFDLQLLVFMFPVGLYYCFSNLSDARIFIIMYGVTSMYFSAVMVRLMLVLAPVMCILSGIGVSQVLSTYMKNLDISRPDKKSKKQQDSTYPIKNEVASGMILVMAFFLITYTFHSTWVTSEAYSSPSIVLSARGGDGSRIIFDDFREAYYWLRHNTPEDAKVMSWWDYGYQITAMANRTILVDNNTWNNTHISRVGQAMASTEEKAYEIMRELDVSYVLVIFGGLTGYSSDDINKFLWMVRIGGSTDTGKHIKENDYYTPTGEFRVDREGSPVLLNCLMYKMCYYRFGQVYTEAKRPPGFDRVRNAEIGNKDFELDVLEEAYTTEHWLVRIYKVKDLDNRGLSRT

What was measured:
Experiment in all cases: co-IP
[1] = biological target: T1, MIIP in HCT116 cells transfected with AZGP1 plasmids only (human (endogenous in HCT116))
[2] = biological target: T2, Migration and invasion inhibitory protein, FLAG-tagged (pCMV-MIIP-FLAG)
[3] = biological target: T3, MIIP in HepG2 and T47-D cells
[4] = biological target: AZGP1-6×His wild type (pEX-3-AZGP1-6×His) (UniProt P25311)

Molecule	binding [4]	further results
AZGP1-6×His wild type (pEX-3-AZGP1-6×His) (from UniProt P25311 21-298)	–	binding [1]: binds
alpha-2-glycoprotein 1, zinc-binding (AZGP1), endogenous (from UniProt P25311 21-298)	–	binding [2]: binds; binding [3]: binds
B1	binds	–
B2	no binding	–
B3	binds	–
